The chains behind the UniProt entries cited, without tags or fusion partners. Where a name states a change or a piece, a line headed by the entry shows the natural chain unless it says otherwise. Residues count along the entry.
UniProt P05106, residues 27-788: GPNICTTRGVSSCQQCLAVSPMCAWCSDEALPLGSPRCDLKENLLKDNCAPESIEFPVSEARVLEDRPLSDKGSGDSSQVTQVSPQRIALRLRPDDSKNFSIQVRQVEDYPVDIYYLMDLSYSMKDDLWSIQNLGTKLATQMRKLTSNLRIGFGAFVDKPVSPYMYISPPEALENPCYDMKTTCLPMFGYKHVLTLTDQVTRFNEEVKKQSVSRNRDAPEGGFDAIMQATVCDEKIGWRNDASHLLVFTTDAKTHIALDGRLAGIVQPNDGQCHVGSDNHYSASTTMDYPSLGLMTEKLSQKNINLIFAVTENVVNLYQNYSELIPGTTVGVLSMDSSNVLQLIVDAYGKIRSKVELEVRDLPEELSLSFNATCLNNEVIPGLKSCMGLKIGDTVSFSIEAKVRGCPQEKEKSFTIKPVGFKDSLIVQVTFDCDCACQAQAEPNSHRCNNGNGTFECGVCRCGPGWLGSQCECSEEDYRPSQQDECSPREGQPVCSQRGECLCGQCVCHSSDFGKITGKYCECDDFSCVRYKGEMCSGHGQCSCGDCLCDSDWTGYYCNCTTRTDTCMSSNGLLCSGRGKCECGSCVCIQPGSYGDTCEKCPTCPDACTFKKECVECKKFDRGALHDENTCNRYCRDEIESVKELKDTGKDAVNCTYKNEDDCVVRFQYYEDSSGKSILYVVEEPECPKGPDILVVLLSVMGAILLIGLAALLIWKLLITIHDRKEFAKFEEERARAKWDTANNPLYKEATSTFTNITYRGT
UniProt P01009: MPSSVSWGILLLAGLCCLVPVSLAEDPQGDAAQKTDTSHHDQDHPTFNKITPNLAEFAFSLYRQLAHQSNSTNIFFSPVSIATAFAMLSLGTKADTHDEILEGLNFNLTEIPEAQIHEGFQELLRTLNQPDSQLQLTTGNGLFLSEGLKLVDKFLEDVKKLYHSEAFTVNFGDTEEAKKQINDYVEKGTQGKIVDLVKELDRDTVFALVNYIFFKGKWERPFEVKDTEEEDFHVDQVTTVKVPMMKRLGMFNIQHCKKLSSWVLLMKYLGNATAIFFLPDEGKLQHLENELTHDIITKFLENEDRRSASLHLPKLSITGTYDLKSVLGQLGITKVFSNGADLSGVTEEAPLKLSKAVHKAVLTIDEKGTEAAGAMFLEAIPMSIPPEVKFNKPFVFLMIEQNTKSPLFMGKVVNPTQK

In PMC12753576:

Each substance was assayed against ITGB3-3×FLAG (wild type) (human) (UniProt P05106) (assay: co-IP; HCC cell lines co-transfected with wild-type or mutant SERPINA1 and ITGB3 plasmids for 48 h; immunoprecipitation with HA- or FLAG-tag antibodies).

binding, binds:
SERPINA1 mutant at residue 64 (from UniProt P01009)
SERPINA1 mutant at residue 95 (from UniProt P01009)
SERPINA1 mutant at residue 98 (from UniProt P01009)
SERPINA1 mutant at residue 102 (from UniProt P01009)
SERPINA1 mutant at residue 113 (from UniProt P01009)
SERPINA1 mutant at residue 328 (from UniProt P01009)
SERPINA1 mutant at residue 329 (from UniProt P01009)
SERPINA1 mutant at residue 334 (from UniProt P01009)

Results are given in words; binding and its absence hold for the method and conditions named. Binding seen in cells or lysates may run through a third protein. Binding calls can cover weak binding; strength is not graded here.
